Data as given in PubChem BioAssay AID1259308 (NCATS, 2017)
The whole screen tested about 59,000 reagents; below is a random part of them. About 1,510 of all reagents (2.6%) count as active. 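Calls use total luciferase alone and ignore viability, so some active siRNAs may act by altering cell number.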 A number with no mark means an inactive call. Reagents against one gene are numbered here. Further read-outs or replicates are left out here. No sequences are given here.

Purpose: 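Knock-downs that increase output of a recombinant reporter protein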 (primary screen)
Cells: human HEK293 embryonic kidney cells stably expressing firefly luciferase (HEK-CMV-Luc2-Hygro)
Reagents: single siRNA against human genes, 0.8 pmol siRNA per well
Time to read-out: 72 h
Measurement: 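Reporter luminescence and viable-cell signal on separate replicate plates, given as percent of non-targeting control and median/MAD z-scores, plus per-cell luciferase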
Scale: total luciferase, z-score: higher = more reporter protein produced
Call rule: 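An siRNA counts as active if its total luciferase robust z-score exceeds 3; genes with two or more such siRNAs out of three were retested with fresh siRNAs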
Meaning of the calls: active = raised luciferase; inactive = no rise

total luciferase, z-score | Gene | reagent no.
0.287 | RAB26 | 1
-0.694 | RAB26 | 2
-0.342 | RAB26 | 3
-0.652 | ANXA6 | 1
-1.46 | ANXA6 | 2
2.08 | ANXA6 | 3
-0.0184 | MIR205HG | 1
-2.22 | MIR205HG | 2
0.0902 | MIR205HG | 3
-0.0593 | ZNF649 | 1
0.505 | ZNF649 | 2
1.94 | ZNF649 | 3
-0.467 | GRIFIN | 1
-1.49 | GRIFIN | 2
-0.495 | GRIFIN | 3
0.052 | PYY | 1
-0.306 | PYY | 2
0.495 | PYY | 3
3.41 (active) | KIF19BP | 1
-0.159 | KIF19BP | 2
1.35 | KIF19BP | 3
-0.115 | RALGPS2 | 1
-0.179 | RALGPS2 | 2
-0.885 | RALGPS2 | 3
-1.14 | PI4KB | 1
-0.495 | PI4KB | 2
2.79 | PI4KB | 3
1.07 | GSTCD | 1
-0.44 | GSTCD | 2
1.32 | GSTCD | 3
-0.687 | GPN2 | 1
-1.44 | GPN2 | 2
-0.395 | GPN2 | 3
0.374 | RD3L | 1
-0.777 | RD3L | 2
0.808 | RD3L | 3
2.83 | ZG16B | 1
-0.749 | ZG16B | 2
0.024 | ZG16B | 3

Records listed so far called active:
total luciferase, z-score | Gene | reagent no.
3.41 (active) | KIF19BP | 1
